The supplement of paper PMC10849652
The other results are listed elsewhere or left out.

By UniProt entry, the sequences of proteins in these tests, tags left out. Where a name states a change or a piece, a line headed by the entry shows the natural chain unless it says otherwise.
UniProt Q15165: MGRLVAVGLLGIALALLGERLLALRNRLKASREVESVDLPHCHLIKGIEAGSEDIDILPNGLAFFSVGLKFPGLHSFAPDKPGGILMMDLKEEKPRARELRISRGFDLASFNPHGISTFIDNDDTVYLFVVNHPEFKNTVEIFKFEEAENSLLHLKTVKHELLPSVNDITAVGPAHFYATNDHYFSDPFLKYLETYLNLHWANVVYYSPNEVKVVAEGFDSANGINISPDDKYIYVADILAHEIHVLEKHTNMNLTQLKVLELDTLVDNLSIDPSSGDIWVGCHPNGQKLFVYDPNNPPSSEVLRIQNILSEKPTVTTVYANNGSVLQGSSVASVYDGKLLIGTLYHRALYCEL
UniProt Q9NRF9: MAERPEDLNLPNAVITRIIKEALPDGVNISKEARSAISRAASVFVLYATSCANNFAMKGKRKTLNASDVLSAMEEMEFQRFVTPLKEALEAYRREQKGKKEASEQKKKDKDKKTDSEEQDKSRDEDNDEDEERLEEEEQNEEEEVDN
UniProt Q8N490: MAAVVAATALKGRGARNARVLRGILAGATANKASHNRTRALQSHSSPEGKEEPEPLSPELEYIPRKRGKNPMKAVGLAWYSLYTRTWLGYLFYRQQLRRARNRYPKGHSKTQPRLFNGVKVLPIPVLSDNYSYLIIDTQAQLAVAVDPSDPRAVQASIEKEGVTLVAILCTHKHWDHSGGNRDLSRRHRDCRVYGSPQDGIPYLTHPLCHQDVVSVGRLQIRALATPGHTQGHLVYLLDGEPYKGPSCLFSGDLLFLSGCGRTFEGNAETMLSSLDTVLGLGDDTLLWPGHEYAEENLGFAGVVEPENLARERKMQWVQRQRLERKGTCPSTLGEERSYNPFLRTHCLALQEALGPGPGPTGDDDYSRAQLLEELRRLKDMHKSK
UniProt Q02809: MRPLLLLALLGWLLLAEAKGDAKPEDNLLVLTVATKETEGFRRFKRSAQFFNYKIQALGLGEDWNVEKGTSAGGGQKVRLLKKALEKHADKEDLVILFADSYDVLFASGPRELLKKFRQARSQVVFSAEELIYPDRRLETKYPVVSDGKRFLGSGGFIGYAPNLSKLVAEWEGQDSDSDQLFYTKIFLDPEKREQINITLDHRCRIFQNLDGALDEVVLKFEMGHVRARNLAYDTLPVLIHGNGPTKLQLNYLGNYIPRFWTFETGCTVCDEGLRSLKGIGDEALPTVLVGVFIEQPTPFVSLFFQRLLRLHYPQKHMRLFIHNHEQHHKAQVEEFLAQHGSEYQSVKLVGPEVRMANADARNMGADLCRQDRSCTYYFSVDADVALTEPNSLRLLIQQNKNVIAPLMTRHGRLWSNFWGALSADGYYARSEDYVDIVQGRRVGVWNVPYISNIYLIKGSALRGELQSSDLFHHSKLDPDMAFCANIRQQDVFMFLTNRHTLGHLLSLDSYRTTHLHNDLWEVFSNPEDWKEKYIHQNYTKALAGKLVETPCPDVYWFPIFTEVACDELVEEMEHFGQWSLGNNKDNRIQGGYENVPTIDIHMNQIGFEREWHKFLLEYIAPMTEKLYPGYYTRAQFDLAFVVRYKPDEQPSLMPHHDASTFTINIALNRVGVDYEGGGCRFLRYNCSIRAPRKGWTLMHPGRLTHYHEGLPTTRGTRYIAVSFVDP
UniProt Q9NVU0: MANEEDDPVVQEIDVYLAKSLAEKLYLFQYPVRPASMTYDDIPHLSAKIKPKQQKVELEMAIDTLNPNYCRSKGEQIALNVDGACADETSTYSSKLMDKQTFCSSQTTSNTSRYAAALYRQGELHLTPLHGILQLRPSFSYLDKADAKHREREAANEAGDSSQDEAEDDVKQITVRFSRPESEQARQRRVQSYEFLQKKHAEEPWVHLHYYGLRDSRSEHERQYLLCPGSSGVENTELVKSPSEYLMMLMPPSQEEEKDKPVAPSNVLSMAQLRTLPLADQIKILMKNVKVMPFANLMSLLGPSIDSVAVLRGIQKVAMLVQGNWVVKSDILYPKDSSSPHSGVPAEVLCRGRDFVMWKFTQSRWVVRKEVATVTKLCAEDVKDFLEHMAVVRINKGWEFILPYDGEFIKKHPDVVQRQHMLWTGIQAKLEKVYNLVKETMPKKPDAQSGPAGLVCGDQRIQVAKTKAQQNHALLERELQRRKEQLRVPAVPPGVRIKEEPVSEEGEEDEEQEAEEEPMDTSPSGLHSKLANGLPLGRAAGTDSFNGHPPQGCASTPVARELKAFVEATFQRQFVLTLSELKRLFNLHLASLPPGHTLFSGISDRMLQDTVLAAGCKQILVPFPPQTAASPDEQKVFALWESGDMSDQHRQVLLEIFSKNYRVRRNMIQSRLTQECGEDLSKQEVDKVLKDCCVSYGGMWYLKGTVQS
UniProt P16435: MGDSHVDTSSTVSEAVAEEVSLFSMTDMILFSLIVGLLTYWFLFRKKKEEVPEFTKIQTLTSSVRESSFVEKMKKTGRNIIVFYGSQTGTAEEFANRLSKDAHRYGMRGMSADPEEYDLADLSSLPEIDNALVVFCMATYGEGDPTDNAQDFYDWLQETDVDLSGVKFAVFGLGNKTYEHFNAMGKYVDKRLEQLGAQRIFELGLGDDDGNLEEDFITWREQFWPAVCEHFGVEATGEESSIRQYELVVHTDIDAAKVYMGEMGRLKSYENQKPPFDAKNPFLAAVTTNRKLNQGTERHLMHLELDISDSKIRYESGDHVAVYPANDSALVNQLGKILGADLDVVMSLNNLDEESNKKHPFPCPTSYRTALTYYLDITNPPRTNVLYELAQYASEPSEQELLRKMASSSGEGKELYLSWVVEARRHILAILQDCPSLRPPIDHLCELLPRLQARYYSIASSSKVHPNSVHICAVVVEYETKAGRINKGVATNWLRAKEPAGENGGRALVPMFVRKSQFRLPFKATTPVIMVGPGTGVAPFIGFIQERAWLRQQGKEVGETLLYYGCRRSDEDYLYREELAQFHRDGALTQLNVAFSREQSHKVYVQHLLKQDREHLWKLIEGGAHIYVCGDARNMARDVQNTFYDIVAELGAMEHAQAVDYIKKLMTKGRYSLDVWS
UniProt Q9BY77: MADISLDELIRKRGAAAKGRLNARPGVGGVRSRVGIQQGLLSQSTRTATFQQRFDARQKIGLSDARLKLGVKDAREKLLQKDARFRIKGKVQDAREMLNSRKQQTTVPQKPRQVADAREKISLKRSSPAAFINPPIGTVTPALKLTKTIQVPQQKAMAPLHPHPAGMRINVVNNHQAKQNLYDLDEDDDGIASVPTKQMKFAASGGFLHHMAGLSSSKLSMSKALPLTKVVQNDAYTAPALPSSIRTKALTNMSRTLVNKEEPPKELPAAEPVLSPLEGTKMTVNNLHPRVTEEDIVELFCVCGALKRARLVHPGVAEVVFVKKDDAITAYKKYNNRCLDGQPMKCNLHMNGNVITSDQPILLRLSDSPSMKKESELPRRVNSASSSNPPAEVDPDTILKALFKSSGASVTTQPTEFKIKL
UniProt Q9NZ53: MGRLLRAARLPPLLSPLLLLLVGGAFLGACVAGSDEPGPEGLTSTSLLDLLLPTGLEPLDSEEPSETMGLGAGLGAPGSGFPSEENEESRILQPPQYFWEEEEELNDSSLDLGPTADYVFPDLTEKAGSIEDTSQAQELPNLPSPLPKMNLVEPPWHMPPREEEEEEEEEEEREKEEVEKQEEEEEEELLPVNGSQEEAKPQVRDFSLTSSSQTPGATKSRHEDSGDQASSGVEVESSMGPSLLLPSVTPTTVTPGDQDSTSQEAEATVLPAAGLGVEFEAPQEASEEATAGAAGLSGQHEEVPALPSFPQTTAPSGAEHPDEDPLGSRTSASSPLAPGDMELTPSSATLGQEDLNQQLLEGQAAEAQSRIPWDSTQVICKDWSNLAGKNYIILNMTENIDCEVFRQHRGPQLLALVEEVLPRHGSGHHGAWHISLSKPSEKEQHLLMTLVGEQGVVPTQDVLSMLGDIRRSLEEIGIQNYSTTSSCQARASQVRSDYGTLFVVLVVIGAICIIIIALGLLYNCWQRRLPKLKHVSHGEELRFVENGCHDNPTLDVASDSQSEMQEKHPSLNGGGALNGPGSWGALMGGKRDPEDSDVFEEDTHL
UniProt P49005: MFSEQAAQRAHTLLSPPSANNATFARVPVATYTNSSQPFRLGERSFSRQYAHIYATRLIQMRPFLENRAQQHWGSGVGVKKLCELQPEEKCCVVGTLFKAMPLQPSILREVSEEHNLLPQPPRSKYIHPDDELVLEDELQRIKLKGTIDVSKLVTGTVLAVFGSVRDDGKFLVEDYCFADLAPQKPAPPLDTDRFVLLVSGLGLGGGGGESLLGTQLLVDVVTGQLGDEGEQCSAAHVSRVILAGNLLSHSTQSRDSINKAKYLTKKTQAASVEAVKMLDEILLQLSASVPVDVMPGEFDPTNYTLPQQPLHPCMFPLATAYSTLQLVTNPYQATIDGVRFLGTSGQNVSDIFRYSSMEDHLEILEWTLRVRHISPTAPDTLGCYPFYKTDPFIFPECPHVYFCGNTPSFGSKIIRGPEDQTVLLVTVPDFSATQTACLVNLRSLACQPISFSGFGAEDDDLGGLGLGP
UniProt Q9NRX1: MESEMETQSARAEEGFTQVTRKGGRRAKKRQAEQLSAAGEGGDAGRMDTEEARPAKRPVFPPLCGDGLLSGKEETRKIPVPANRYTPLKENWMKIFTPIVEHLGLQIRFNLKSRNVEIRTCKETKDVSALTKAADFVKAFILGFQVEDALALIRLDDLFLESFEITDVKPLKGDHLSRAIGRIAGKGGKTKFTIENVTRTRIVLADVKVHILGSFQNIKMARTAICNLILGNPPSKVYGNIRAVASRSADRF
UniProt Q9H2H8: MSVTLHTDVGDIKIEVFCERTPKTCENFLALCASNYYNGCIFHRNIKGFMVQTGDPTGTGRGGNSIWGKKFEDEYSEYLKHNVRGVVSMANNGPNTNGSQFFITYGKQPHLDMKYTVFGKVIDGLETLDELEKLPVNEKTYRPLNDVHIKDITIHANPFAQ
UniProt Q96CD2: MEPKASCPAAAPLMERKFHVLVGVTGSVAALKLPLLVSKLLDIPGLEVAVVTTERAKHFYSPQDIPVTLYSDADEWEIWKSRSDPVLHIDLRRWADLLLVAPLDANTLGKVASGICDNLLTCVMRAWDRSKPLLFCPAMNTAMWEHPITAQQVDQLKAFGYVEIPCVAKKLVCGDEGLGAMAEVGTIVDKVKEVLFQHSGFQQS
UniProt O15160, whole entry, looked up: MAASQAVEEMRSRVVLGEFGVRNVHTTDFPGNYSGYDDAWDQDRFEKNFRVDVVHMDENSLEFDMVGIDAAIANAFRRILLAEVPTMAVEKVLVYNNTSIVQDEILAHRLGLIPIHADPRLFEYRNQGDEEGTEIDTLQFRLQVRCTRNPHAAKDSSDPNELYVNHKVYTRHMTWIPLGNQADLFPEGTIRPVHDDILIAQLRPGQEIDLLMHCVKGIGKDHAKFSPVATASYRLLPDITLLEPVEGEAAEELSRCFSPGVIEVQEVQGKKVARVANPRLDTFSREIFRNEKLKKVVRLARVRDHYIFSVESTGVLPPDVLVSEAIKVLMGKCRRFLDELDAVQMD
UniProt O43660: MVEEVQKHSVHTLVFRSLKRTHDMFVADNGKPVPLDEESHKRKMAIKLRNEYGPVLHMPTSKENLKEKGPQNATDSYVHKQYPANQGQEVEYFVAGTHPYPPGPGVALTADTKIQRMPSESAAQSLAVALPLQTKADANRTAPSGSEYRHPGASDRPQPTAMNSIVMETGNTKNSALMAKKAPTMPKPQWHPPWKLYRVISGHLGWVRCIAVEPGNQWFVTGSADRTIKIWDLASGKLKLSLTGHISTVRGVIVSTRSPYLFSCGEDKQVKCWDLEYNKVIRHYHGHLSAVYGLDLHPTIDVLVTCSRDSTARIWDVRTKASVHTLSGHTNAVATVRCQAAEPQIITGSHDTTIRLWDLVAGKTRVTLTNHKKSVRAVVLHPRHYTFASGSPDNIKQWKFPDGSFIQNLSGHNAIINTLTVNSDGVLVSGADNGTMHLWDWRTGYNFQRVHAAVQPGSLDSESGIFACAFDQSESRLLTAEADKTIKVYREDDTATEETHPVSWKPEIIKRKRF
UniProt Q15181: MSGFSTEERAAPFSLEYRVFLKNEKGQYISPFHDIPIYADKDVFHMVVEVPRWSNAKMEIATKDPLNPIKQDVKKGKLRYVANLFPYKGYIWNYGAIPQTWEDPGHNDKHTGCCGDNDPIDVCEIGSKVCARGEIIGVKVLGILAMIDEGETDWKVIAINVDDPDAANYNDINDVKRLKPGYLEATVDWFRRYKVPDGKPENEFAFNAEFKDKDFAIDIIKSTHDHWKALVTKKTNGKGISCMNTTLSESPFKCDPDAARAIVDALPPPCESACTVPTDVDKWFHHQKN

Assays:
Assay in all cases: log2 fold change, soluble protein after heating vs DMSO (PISA); higher = thermal stabilisation; K562 cells, 10 uM, 30 min; active = over 0.2 and 3.5 SD of the protein, either way, in both replicates (recomputed)
[1] = compound: CC[C@@H]1C(=O)N(C)c2cnc(Nc3ccc(C(=O)NC4CCN(C)CC4)cc3OC)nc2N1C1CCCC1
Method in brief: (§1)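 Thermal stability values are relative to control samples and come from duplicates. They are expressed as log2 fold changes. For measurement, K562 cells (2×10^6 cells/mL) received 10 μM compound for 30 min, and aliquots were heated for 3 min over 48°C-58°C, pooled, and extracted at 4°C in PBS with 0.5% NP-40. Soluble protein, the supernatant after 21,000xg for 90 min, was quantified by TMTpro 16plex LC-MS/MS with equalised channel sums.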

[2] = compound: CC[C@@H]1C(=O)N(C)c2cnc(Nc3ccc(C(=O)N[C@H]4CC[C@H](N5CCN(CC6CC6)CC5)CC4)cc3OC)nc2N1C(C)C [volasertib]
Method in brief: as §1

[3] = compound: CC[C@H](C)N1C=C(C2=C(C=C(C=C21)C3=CN=C(C=C3)N4CCNCC4)C(=O)NCC5=C(C=C(NC5=O)C)C)C
Method in brief: as §1

[4] = compound: CC[C@H](C)[C@@H](C(=O)N[C@@H]([C@@H](C)O)C(=O)N[C@@H](CC(C)C)C(=O)[C@]1(CO1)C)NC(=O)[C@H]([C@@H](C)CC)N(C)C(=O)C [epoxomicin]
Method in brief: as §1

[5] = compound: CCn1c(C(=O)N(C2CC2)C2CC2)cc2c3c(ncn3C)c(Nc3cc(C)n(C)n3)nc21
Method in brief: as §1

[6] = compound: CCn1cc(-c2ccnc3[nH]c(-c4cccc(CN(C)C)c4)cc23)c(-c2ccc(NC(=O)N(C)C)cc2)n1
Method in brief: as §1

[7] = compound: CN(C)CC(=O)Nc1ccc2[nH]c(=O)c3ccccc3c2c1
Method in brief: as §1

[8] = compound: CN(CCOC1=CC=C(C=C1)C[C@H]2C(=O)NC(=O)S2)C3=CC=CC=N3 (racemic) [rosiglitazone]
Method in brief: as §1

[9] = compound: CN1C2=C(C3=C1C(=O)N(N=C3)CC4=CC(=CC=C4)N)SC(=C2)S(=O)C
Method in brief: as §1

[10] = compound: CN1CCC(CNc2ccc3ncc(-c4cccc(OC(F)(F)F)c4)n3n2)CC1
Method in brief: as §1

[11] = compound: CN1CCN(CCOc2cc(OC3CCOCC3)c3c(Nc4c(Cl)ccc5c4OCO5)ncnc3c2)CC1 [saracatinib]
Method in brief: as §1

[12] = compound: CN1CCN(c2nc(C3=C(c4c[nH]c5ccccc45)C(=O)NC3=O)c3ccccc3n2)CC1 [sotrastaurin]
Method in brief: as §1

[13] = compound: CN1CC[C@H](c2c(O)cc(O)c3c(=O)cc(-c4ccccc4Cl)oc23)[C@H](O)C1 [alvocidib]
Method in brief: as §1

[14] = compound: CN1CCc2c(c3ccccc3n2Cc2ccc(C(=O)NO)cc2)C1 [Tubastatin A]
Method in brief: as §1

[15] = compound: CNC(=O)C1=CC=CC=C1NC2=NC(=NC=C2Cl)NC3=C(C=C(C=C3)N4CCOCC4)OC
Method in brief: as §1

[16] = compound: CNC(=O)c1ccc(Nc2ncc(C(F)(F)F)c(NCc3nccnc3N(C)S(C)(=O)=O)n2)cc1 [defactinib]
Method in brief: as §1

[17] = compound: CNCc1ccc(-c2[nH]c3cc(F)cc4c3c2CCNC4=O)cc1 [rucaparib]
Method in brief: as §1

[18] = compound: CNc1nc(-c2ccc3c(N)n[nH]c3c2)cc(N2C[C@@H](C(=O)NC3CCCCC3)CC[C@H]2C)n1
Method in brief: as §1

[19] = compound: COC(=O)N[C@@H](C)CNc1nccc(-c2cn(C(C)C)nc2-c2cc(Cl)cc(NS(C)(=O)=O)c2F)n1 [encorafenib]
Method in brief: as §1

[20] = compound: COC(=O)[C@H](CCSC)NC(=O)C1=C(C=C(C=C1)NC[C@H](CS)N)C2=CC=CC=C2
Method in brief: as §1

Measured: log2 fold change

PON2 (UniProt Q15165)
inactive: [1] 0.003 | [2] -0.041 | [3] 0.016 | [4] 0.055 | [5] 0.006 | [6] 0.055 | [7] -0.001 | [8] -0.004 | [9] -0.071 | [10] 0.055 | [11] -0.105 | [12] -0.005 | [13] 0.052 | [14] 0.026 | [15] -0.009 | [16] -0.013 | [17] -0.051 | [18] 0.032 | [19] -0.031 | [20] 0.013

POLE3 (UniProt Q9NRF9)
inactive: [1] 0.059 | [2] 0.148 | [3] 0.018 | [4] -0.001 | [5] 0.01 | [6] -0.017 | [7] 0.095 | [8] 0.004 | [9] -0.057 | [10] 0.061 | [11] -0.03 | [12] 0.062 | [13] -0.002 | [14] 0.012 | [15] -0.003 | [16] -0.036 | [17] -0.034 | [18] -0.021 | [19] -0.061 | [20] -0.059

PNKD isoform 2 (UniProt Q8N490)
inactive: [1] 0.04 | [2] 0.037 | [3] -0.014 | [4] 0.017 | [5] -0.032 | [6] -0.035 | [7] -0.003 | [8] -0.048 | [9] 0.097 | [10] -0.075 | [11] -0.038 | [12] 0.068 | [13] 0 | [14] 0.049 | [15] 0.017 | [16] -0.071 | [17] -0.065 | [18] -0.156 | [19] 0.017 | [20] -0.003

PLOD1 isoform 2 (UniProt Q02809)
inactive: [1] 0.055 | [2] 0.049 | [3] 0 | [4] -0.025 | [5] 0.005 | [6] 0.056 | [7] -0.021 | [8] -0.044 | [9] 0.107 | [10] 0.148 | [11] -0.083 | [12] -0.058 | [13] 0.072 | [14] 0.075 | [15] -0.005 | [16] 0.081 | [17] 0.12 | [18] 0.03 | [19] 0.092 | [20] -0.02

PNISR (UniProt Q8TF01)
inactive: [1] 0.008 | [2] 0.024 | [3] -0.042 | [4] -0.033 | [5] 0.024 | [6] 0.019 | [7] -0.003 | [8] 0 | [9] -0.041 | [10] -0.026 | [11] 0.041 | [12] 0.077 | [13] 0.037 | [14] -0.027 | [15] -0.088 | [16] -0.028 | [17] 0.001 | [18] -0.048 | [19] -0.018 | [20] 0.048

Reprinted at random: two entries already listed
PNKD isoform 2 (UniProt Q8N490)
inactive: [1] 0.04 | [2] 0.037 | [3] -0.014 | [4] 0.017 | [5] -0.032 | [6] -0.035 | [7] -0.003 | [8] -0.048 | [9] 0.097 | [10] -0.075 | [11] -0.038 | [12] 0.068 | [13] 0 | [14] 0.049 | [15] 0.017 | [16] -0.071 | [17] -0.065 | [18] -0.156 | [19] 0.017 | [20] -0.003

POLE3 (UniProt Q9NRF9)
inactive: [1] 0.059 | [2] 0.148 | [3] 0.018 | [4] -0.001 | [5] 0.01 | [6] -0.017 | [7] 0.095 | [8] 0.004 | [9] -0.057 | [10] 0.061 | [11] -0.03 | [12] 0.062 | [13] -0.002 | [14] 0.012 | [15] -0.003 | [16] -0.036 | [17] -0.034 | [18] -0.021 | [19] -0.061 | [20] -0.059

(cont.)

POLR3E (UniProt Q9NVU0)
inactive: [1] -0.013 | [2] -0.502 | [3] 0.089 | [4] -0.082 | [5] 0.042 | [6] -0.021 | [7] 0.07 | [8] 0.139 | [9] 0.084 | [10] 0.023 | [11] -0.112 | [12] -0.217 | [13] -0.029 | [14] -0.023 | [15] 0.052 | [16] -0.057 | [17] 0.198 | [18] 0.027 | [19] 0.096 | [20] -0.104

POR (UniProt P16435)
inactive: [1] 0.025 | [2] -0.012 | [3] 0.01 | [4] 0.049 | [5] -0.01 | [6] -0.058 | [7] 0.006 | [8] 0.017 | [9] -0.038 | [10] 0.09 | [11] 0.016 | [12] 0.085 | [13] -0.065 | [14] 0.006 | [15] -0.004 | [16] -0.043 | [17] -0.006 | [18] -0.008 | [19] -0.013 | [20] -0.027

POLDIP3 (UniProt Q9BY77)
inactive: [1] 0.116 | [2] 0.101 | [3] 0.009 | [4] 0.126 | [5] 0.053 | [6] 0.122 | [7] -0.121 | [8] 0.021 | [9] 0.074 | [10] 0.19 | [11] -0.003 | [12] -0.005 | [13] 0.122 | [14] -0.007 | [15] 0.03 | [16] 0.07 | [17] -0.057 | [18] 0.002 | [19] 0.011 | [20] 0.061

PODXL2 (UniProt Q9NZ53)
inactive: [1] 0.032 | [2] -0.185 | [3] 0.008 | [4] -0.021 | [5] 0.031 | [6] 0.144 | [7] -0.04 | [8] -0.017 | [9] 0.042 | [10] -0.122 | [11] -0.26 | [12] -0.333 | [13] 0.154 | [14] 0.043 | [15] 0.033 | [16] -0.142 | [17] 0.008 | [18] 0 | [19] -0.07 | [20] -0.103

POLD2 (UniProt P49005)
inactive: [1] -0.123 | [2] -0.238 | [3] 0.043 | [4] 0.125 | [5] 0.003 | [6] -0.002 | [7] 0.038 | [8] 0.05 | [9] -0.05 | [10] -0.066 | [11] 0.031 | [12] -0.083 | [13] -0.111 | [14] 0.069 | [15] 0.023 | [16] -0.07 | [17] -0.044 | [18] 0 | [19] -0.003 | [20] 0

PNO1 (UniProt Q9NRX1)
inactive: [1] 0.122 | [2] 0.128 | [3] 0.059 | [4] -0.027 | [5] -0.091 | [6] 0.001 | [7] 0.041 | [8] 0.026 | [9] 0.132 | [10] 0.273 | [11] -0.117 | [12] -0.057 | [13] 0.154 | [14] 0.231 | [15] 0.003 | [16] 0.126 | [17] 0.125 | [18] 0.095 | [19] 0.163 | [20] -0.074

PPIL3 isoform 2 (UniProt Q9H2H8)
inactive: [1] 0.063 | [2] -0.146 | [3] 0.139 | [4] -0.007 | [5] -0.042 | [6] 0.027 | [7] 0.024 | [8] 0.07 | [9] 0.031 | [10] -0.112 | [11] 0.034 | [12] -0.082 | [14] 0.018 | [15] -0.031 | [16] -0.017 | [17] -0.031 | [18] -0.042 | [19] -0.034 | [20] -0.074

PPCDC (UniProt Q96CD2)
inactive: [1] 0.093 | [2] -0.123 | [3] -0.108 | [4] -0.033 | [5] -0.029 | [6] -0.063 | [7] 0 | [8] 0.047 | [9] -0.087 | [10] 0.028 | [11] -0.039 | [12] -0.011 | [13] -0.033 | [14] 0.033 | [15] -0.055 | [16] -0.077 | [17] -0.09 | [18] -0.045 | [19] 0.002 | [20] -0.019

POLR1C (UniProt O15160)
inactive: [1] -0.027 | [2] -0.387 | [3] 0.088 | [4] -0.005 | [5] -0.074 | [6] 0.039 | [7] 0.053 | [8] 0.005 | [9] 0.158 | [10] -0.062 | [11] -0.104 | [12] -0.115 | [13] -0.118 | [14] 0.054 | [15] 0.025 | [16] -0.08 | [17] 0.172 | [18] 0.072 | [19] 0.123 | [20] 0.049

PLRG1 (UniProt O43660)
inactive: [1] 0.032 | [2] 0.036 | [3] 0.017 | [4] -0.153 | [5] 0 | [6] 0.064 | [7] -0.007 | [8] -0.011 | [9] 0.066 | [10] 0.046 | [11] 0.032 | [12] -0.028 | [13] 0.102 | [14] -0.02 | [15] -0.067 | [16] 0.016 | [17] 0.022 | [18] -0.121 | [19] -0.018 | [20] 0.014

PPA1 (UniProt Q15181)
inactive: [1] -0.032 | [2] 0.055 | [3] 0.01 | [4] 0.031 | [5] 0.004 | [6] -0.114 | [7] 0.007 | [8] 0.029 | [9] -0.072 | [10] 0.025 | [11] -0.03 | [12] 0.011 | [13] -0.044 | [14] 0.013 | [15] 0.009 | [16] 0.003 | [17] -0.096 | [18] 0 | [19] 0.008 | [20] -0.003
